PubChem BioAssay AID493246 | Drosophila RNAi Screening Center – 2011
The deposit covers about 21,000 reagents; shown is an unselected part of those that have a named target and a result. In the full data, 429 (2%) are marked active. 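Values are raw and not normalised between plates; calls rest on per-plate z-scores that were not deposited.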 Unmarked entries are inactive. A plus sign joins genes that one reagent is predicted to hit. Not given: the amount of reagent, the time to read-out.

Aim: 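Genes fly cells need to grow and stay alive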 (primary screen)
Cell system: Drosophila Kc and S2R+ cells
Reagent: long dsRNA against Drosophila genes
Read-out: 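Raw, unnormalised count of remaining cells in each well; per-plate z-scores of cell number underlie the calls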
Reading the numbers: Kc cell number and S2R+ cell number: higher = more cells remaining
Active means: 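Counted as a hit if cell number falls by a z-score of at least 3 within its plate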

| Target gene | DRSC id | Kc cell number, rep 1 | Kc cell number, rep 2 | S2R+ cell number, rep 1 | S2R+ cell number, rep 2 |
| --- | --- | --- | --- | --- | --- |
| CG11841 | DRSC14399 | 5.26e5 | – | 8.48e5 | – |
| Tsp42El | DRSC06186 | 1.68e6 | 1.76e6 | 1.20e6 | 1.16e6 |
| Gr58a | DRSC03910 | 5.30e5 | – | 8.32e5 | – |
| CheB38c | DRSC02389 | 1.65e6 | 1.81e6 | 1.40e6 | 3.08e5 |
| Atg13 | DRSC16228 | 1.59e6 | 1.76e6 | 1.20e6 | 1.33e6 |
| CG18539 | DRSC06766 | 1.52e6 | 1.59e6 | 1.11e6 | 1.23e6 |
| CG8565 | DRSC20112 | 1.68e6 | 1.70e6 | 1.21e6 | 1.28e6 |
| RabGGTb | DRSC00804 | 1.31e6 | 1.36e6 | 7.05e5 | 8.22e5 |
| scny | DRSC10509 | 1.14e6 | 1.31e6 | 1.18e6 | 6.68e5 |
| scny | DRSC10510 | 1.53e6 | 1.56e6 | 1.03e6 | 1.08e6 |
| temp | DRSC18271 | 4.84e5 | – | 8.55e5 | – |
| CG11293 (retired record) | DRSC04098 | 1.50e6 | 1.55e6 | 1.24e6 | 1.36e6 |
| CG33263 | DRSC10108 | 1.33e6 | 1.47e6 | 1.29e6 | 1.37e6 |
| CG30377 | DRSC06477 | 1.54e6 | 1.50e6 | 1.16e6 | 1.19e6 |
| CG30377 | DRSC06799 | 1.47e6 | 1.55e6 | 1.07e6 | 1.20e6 |
| CG13814 (retired record) | DRSC10069 | 1.74e6 | 1.91e6 | 1.42e6 | 1.58e6 |
| fs(1)M3 | DRSC18381 | 5.64e5 | – | 8.85e5 | – |
| Tim10 + CG42497 | DRSC04664 | 1.22e6 | 1.43e6 | 9.26e5 | 6.54e5 |
| Acbp3 | DRSC11022 | 1.57e6 | 1.39e6 | 1.06e6 | 1.18e6 |
| fd96Cb | DRSC16947 | 1.42e6 | 1.41e6 | 9.30e5 | 9.81e5 |
| c11.1 | DRSC18749 | 1.65e6 | 1.53e6 | 9.94e5 | 1.09e6 |
| CG5070 | DRSC19932 | 1.54e6 | 1.54e6 | 1.12e6 | 1.18e6 |
| CG8501 | DRSC07198 | 1.34e6 | 1.44e6 | 1.09e6 | 1.16e6 |
| Or46a | DRSC07489 | 1.67e6 | 1.64e6 | 1.38e6 | 1.51e6 |
| Or46a | DRSC07490 | 1.73e6 | 1.64e6 | 1.34e6 | 1.45e6 |
| Gfat1 | DRSC21219 | 1.71e6 | 1.77e6 | 1.12e6 | 1.27e6 |
| CG11226 | DRSC11639 | 1.42e6 | 1.52e6 | 1.27e6 | 1.34e6 |
| CG12983 | DRSC11692 | 1.34e6 | 1.51e6 | 1.29e6 | 1.41e6 |
| Pdhb | DRSC14420 | 4.95e5 | – | 6.85e5 | – |

Records listed so far whose target name begins with G or g (2):
| Target gene | DRSC id | Kc cell number, rep 1 | Kc cell number, rep 2 | S2R+ cell number, rep 1 | S2R+ cell number, rep 2 |
| --- | --- | --- | --- | --- | --- |
| Gr58a | DRSC03910 | 5.30e5 | – | 8.32e5 | – |
| Gfat1 | DRSC21219 | 1.71e6 | 1.77e6 | 1.12e6 | 1.27e6 |

Additional results follow.
| Target gene | DRSC id | Kc cell number, rep 1 | Kc cell number, rep 2 | S2R+ cell number, rep 1 | S2R+ cell number, rep 2 |
| --- | --- | --- | --- | --- | --- |
| CG9346 | DRSC04542 | 1.34e6 | 1.48e6 | 1.08e6 | 1.12e6 |
| fs(1)N | DRSC18578 | 1.44e6 | 1.42e6 | 1.03e6 | 1.16e6 |
| Strump | DRSC09872 | 1.41e6 | 1.43e6 | 1.29e6 | 1.36e6 |
| Abca3 | DRSC20546 | 1.67e6 | 1.70e6 | 1.20e6 | 1.56e6 |
| CG10752 | DRSC09799 | 1.07e6 | 1.25e6 | 1.22e6 | 1.06e6 |
| Smg5 | DRSC03124 | 1.19e6 | 1.24e6 | 1.16e6 | 1.14e6 |
| Arc2 | DRSC06436 | 1.57e6 | 1.55e6 | 1.25e6 | 1.33e6 |
| ECSIT | DRSC12348 | 1.38e6 | 1.55e6 | 1.24e6 | 1.32e6 |
| CG10005 | DRSC14172 | 1.87e6 | 1.88e6 | 1.29e6 | 1.36e6 |
| Adi1 | DRSC10945 | 1.47e6 | 1.53e6 | 1.26e6 | 1.37e6 |
| l(1)sc | DRSC18789 | 1.57e6 | 1.58e6 | 1.01e6 | 1.16e6 |
| Gr64f | DRSC08447 | 1.43e6 | 1.40e6 | 1.00e6 | 1.15e6 |
| CG32845 | DRSC07867 | 1.46e6 | 1.40e6 | 9.79e5 | 1.16e6 |
| CG18420 | DRSC01954 | 1.42e6 | 1.51e6 | 1.24e6 | 1.39e6 |
| CG31365 | DRSC15610 | 1.54e6 | 1.58e6 | 1.21e6 | 1.32e6 |
| Ir48c | DRSC06154 | 1.59e6 | 1.58e6 | 1.17e6 | 1.33e6 |
| vis + achi | DRSC07277 | 1.27e6 | 1.41e6 | 1.12e6 | 1.19e6 |
| CG13133 | DRSC02230 | 1.78e6 | 1.82e6 | 1.20e6 | 1.35e6 |
| Txl | DRSC11310 | 1.60e6 | 1.79e6 | 1.08e6 | 1.16e6 |
| Paf-AHalpha | DRSC20267 | 1.41e6 | 1.47e6 | 1.10e6 | 1.13e6 |
| Cpsf6 | DRSC10781 | 1.07e6 | 1.13e6 | 1.09e6 | 1.03e6 |
| nop5 | DRSC03582 | 1.46e6 | 1.39e6 | 1.07e6 | 1.18e6 |
| Cap-G | DRSC06652 | 1.68e6 | 1.63e6 | 1.38e6 | 1.46e6 |
| Cap-G | DRSC06653 | 1.68e6 | 1.65e6 | 1.31e6 | 1.55e6 |
| Cyt-c1 | DRSC10447 | 1.28e6 | 1.37e6 | 1.31e6 | 1.26e6 |
| CG2816 | DRSC00539 | 1.63e6 | 1.65e6 | 1.24e6 | 1.39e6 |
| Dolk | DRSC07143 | 1.62e6 | 1.64e6 | 1.15e6 | 1.30e6 |
| ppk8 | DRSC17269 | 1.52e6 | 1.66e6 | 1.08e6 | 1.11e6 |
| CG15014 | DRSC08468 | 1.69e6 | 1.56e6 | 1.00e6 | 1.16e6 |
| Set8 | DRSC15473 | 1.32e6 | 1.39e6 | 1.12e6 | 1.20e6 |
